Test results reported in the supplement of paper PMC8426693.
The list shows a part of the results.

Columns and labels:
Experiment in all cases: NMR binding call after quantification (hit when 2 of 3 NMR criteria are met) (binary (1 = binding, 0 = not binding)); higher = binding
Details in all cases: RNA concentration 10 µM; fragment concentration 200 µM; 293 K
[1] = tested on: SARS-CoV-2 5'-UTR RNA
[2] = tested on: SARS-CoV-2 5_SL1 RNA
[3] = tested on: SARS-CoV-2 5_SL1234 RNA
[4] = tested on: SARS-CoV-2 5_SL2+3 RNA
[5] = tested on: SARS-CoV-2 5_SL4 RNA
[6] = tested on: SARS-CoV-2 5_SL5 RNA
[7] = tested on: SARS-CoV-2 5_SL5a RNA
[8] = tested on: SARS-CoV-2 5_SL5b+c RNA
[9] = tested on: SARS-CoV-2 5_SL5stem RNA
[10] = tested on: SARS-CoV-2 5_SL6 RNA

Measured: NMR binding call

CN1CCCC1CO (stereo not given)
0: all assays above

CC(C)(C)NC(=O)N1CCC(C(N)=O)CC1
0: all assays above

Fc1ccc(CNCc2ccccc2)cc1
0: all assays above

C1CC(CNC2CC2)CO1 (stereo not given)
0: all assays above

CC(=O)Nc1cccc(NC(N)=O)c1
0: all assays above

COc1ccc(C(N)C(=O)O)cc1 (stereo not given)
0: all assays above

Grouped by structure, the compounds so far with a carbonyl joined to an NH by a bond outside any ring
CC(C)(C)NC(=O)N1CCC(C(N)=O)CC1
0: all assays above

CC(=O)Nc1cccc(NC(N)=O)c1
0: all assays above

Next entries.

CC(=O)c1ccc(OCC(=O)O)cc1
0: all assays above

COc1ccc(CNC(=O)c2csnn2)cc1
0: all assays above

NC(=O)c1cnc(C(F)(F)F)nc1
0: all assays above

COC(=O)c1sccc1NC(=O)C1CC1
0: all assays above

CN1CCN(C(=O)C2CCCO2)CC1 (stereo not given)
0: all assays above

CC(NS(C)(=O)=O)c1ccccc1Cl (stereo not given)
0: all assays above

CC(=O)N1CCC(c2c[nH]c3ccccc23)CC1
0: all assays above

NC(=S)Nc1ccc(OC(F)(F)F)cc1
0: all assays above

CC(=O)N1CCN(c2ccc(Cl)cc2)CC1
0: all assays above

O=C(NCCC1=CCCCC1)c1cnccn1
0: all assays above

CC(=O)Nc1cnccc1C
0: all assays above

CC(C)(N)CN1CCCC1
0: all assays above

CC(C)N(C)S(=O)(=O)N1CCNC(=O)C1
0: all assays above

CC(C)(C)N1CC(O)C1
0: all assays above

Cc1cccc(C(=O)N(C)C)c1C
0: all assays above

Cc1cc(C)nc(NC(=O)Nc2ccccc2)c1
0: all assays above

CCn1cc(CCO)cn1
0: all assays above

N#Cc1cccc(NC(=O)CCC2CCCC2)c1
0: all assays above
